Results: patent US20030170203A1
Results are given in words; binding and its absence hold for the method and conditions named. In cells and extracts the contact can be indirect. Some results given as binding are weak or reduced against the parent protein; the word gives no strength. For part of these data: Sequences can lack the tags named with a protein.

The chains behind the UniProt entries cited, without tags or fusion partners. Where a name states a change or a piece, a line headed by the entry shows the natural chain unless it says otherwise. A line that says so, or that is headed by a name, gives the form on record, which may keep a tag or linker. Residues count along the entry.
UniProt P19438: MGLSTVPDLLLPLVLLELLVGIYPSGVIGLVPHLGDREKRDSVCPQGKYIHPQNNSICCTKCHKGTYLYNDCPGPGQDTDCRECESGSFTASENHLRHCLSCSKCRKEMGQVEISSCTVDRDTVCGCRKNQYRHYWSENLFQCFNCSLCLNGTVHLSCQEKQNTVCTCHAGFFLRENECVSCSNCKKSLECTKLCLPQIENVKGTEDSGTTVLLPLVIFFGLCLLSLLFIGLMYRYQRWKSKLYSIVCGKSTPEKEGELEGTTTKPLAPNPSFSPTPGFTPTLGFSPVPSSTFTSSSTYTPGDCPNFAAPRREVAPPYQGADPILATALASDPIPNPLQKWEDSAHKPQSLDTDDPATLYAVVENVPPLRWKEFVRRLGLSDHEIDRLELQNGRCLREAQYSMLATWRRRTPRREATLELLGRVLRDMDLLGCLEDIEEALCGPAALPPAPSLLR
Flag-epitope tagged TNFR-1: residues 30-455 of P19438
GST fusion of the cytoplasmic domain of TNFR-1: residues 233-455 of P19438

Key:
[1] = biological target: Flag-epitope tagged TNFR-1 (UniProt P19438); experiment: co-immunoprecipitation with anti-Flag from transfected 293 cells, anti-myc immunoblot
[2] = biological target: T1, Flag-epitope tagged DR3 (human) (UniProt Q93038); experiment: as above
T1 sequence: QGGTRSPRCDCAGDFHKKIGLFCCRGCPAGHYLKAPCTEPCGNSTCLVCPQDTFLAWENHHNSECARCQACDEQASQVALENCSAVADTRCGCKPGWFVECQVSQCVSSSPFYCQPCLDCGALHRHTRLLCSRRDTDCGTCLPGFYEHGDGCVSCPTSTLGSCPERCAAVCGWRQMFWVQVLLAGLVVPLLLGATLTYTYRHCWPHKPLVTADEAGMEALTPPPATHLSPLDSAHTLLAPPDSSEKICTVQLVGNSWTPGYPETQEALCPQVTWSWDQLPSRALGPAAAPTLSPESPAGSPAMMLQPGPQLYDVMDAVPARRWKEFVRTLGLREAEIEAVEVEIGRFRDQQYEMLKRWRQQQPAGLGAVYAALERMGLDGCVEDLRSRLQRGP

[3] = biological target: GST fusion of the cytoplasmic domain of TNFR-1 (UniProt P19438); experiment: GST pull-down of in vitro translated 35S-labeled protein, SDS-PAGE and autoradiography

Measured: binding

B1: TRADD (protein, UniProt Q15628 1-312, looked up, not shown: small tags and cut ends)
chain: MAAGQNGHEEWVGSAYLFVESSLDKVVLSDAYAHPQQKVAVYRALQAALAESGGSPDVLQMLKIHRSDPQLIVQLRFCGRQPCGRFLRAYREGALRAALQRSLAAALAQHSVPLQLELRAGAERLDALLADEERCLSCILAQQPDRLRDEELAELEDALRNLKCGSGARGGDGEVASAPLQPPVPSLSEVKPPPPPPPAQTFLFQGQPVVNRPLSLKDQQTFARSVGLKWRKVGRSLQRGCRALRDPALDSLAYEYEREGLYEQAFQLLRRFVQAEGRRATLQRLVEALEENELTSLAEDLLGLTDPNGGLA
binds: all assays above
